The source holds more than one record for some entries. The other results are left out here. An entry can have further records. Values given together do not match, cause unknown; they may come from other doses, times, organisms or constructs than stated.
Test: Pharmacokinetic analysis in mice
Conditions: 50 mg/kg, ip, bid

In the case of CSc1nc(N)cc(Oc2ccc(-c3nnc(Nc4cccc(C(F)(F)F)c4)[nH]3)cc2)n1 [Compound 6], the Cmax is reported as 3.6 μg/ml and 7.7 µM.

Reference: patent US9260417B2, “Therapeutic methods and compositions involving allosteric kinase inhibition” (AMITECH THERAPEUTIC SOLUTIONS, INC., priority 2010, dated 2016)
